The source of these data is article PMC11470070, “Structural basis for synthase activation and cellulose modification in the E. coli Type II Bcs secretion system” (Nature Communications, 2024).

The target of assay [1] is T1, BcsA cellulose synthase (BcsA^HA-FLAG) (E. coli, UniProt P37653 1-872).
T1 construct: BcsA, E. coli; amplified within the genomic region bcsRQA^HA-FLAGB from genomic DNA of the E. coli 1094 bcsA^HA-FLAG strain; domains NTD, TMD, GT, PilZ, C-terminal tail; Expressed from the whole genomic region bcsRQAB of strain 1094; One copy in the macrocomplex; source: for the BcsF variants E. coli Δbcs BL21*(DE3)
T1 sequence: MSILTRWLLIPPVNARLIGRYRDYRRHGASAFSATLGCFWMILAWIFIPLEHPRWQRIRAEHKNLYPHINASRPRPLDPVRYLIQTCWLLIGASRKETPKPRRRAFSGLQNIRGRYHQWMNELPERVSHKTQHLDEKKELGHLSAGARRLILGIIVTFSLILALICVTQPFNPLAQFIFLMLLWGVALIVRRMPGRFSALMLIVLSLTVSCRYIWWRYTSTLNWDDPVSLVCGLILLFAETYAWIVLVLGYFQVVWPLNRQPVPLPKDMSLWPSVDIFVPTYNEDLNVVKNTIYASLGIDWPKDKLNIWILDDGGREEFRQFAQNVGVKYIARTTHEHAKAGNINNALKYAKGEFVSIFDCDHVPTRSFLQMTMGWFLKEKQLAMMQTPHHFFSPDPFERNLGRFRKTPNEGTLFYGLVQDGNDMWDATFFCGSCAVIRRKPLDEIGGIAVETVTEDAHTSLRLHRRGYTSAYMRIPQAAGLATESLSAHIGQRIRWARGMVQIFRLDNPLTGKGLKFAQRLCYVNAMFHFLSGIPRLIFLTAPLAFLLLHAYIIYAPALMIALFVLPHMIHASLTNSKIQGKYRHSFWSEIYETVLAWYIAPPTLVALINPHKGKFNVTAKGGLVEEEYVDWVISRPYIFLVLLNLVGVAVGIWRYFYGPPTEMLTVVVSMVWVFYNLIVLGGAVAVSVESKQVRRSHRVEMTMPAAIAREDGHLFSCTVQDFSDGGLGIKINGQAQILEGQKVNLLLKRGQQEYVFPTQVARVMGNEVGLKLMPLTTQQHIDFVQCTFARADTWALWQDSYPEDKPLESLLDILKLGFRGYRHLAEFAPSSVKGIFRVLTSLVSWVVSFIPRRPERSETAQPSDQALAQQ
Description: cryo-EM structure; Bcs macrocomplex co-expressed in E. coli and purified on anti-FLAG gel by BcsA^HA-FLAG, 20 mM HEPES pH 8.0, 120 mM NaCl, 5 mM MgCl2, 10 μM AppCp, 4 μM c-di-GMP, 0.01% LM-NPG; class of the c-di-GMP-saturated macrocomplex with local refinements; the BcsB crown refined from all particles; both ….

The target of assay [2] is T1, BcsA cellulose synthase (BcsA^HA-FLAG). Description: cryo-EM structure; same sample and grids as a1; class of particles with a c-di-GMP-free BcsA synthase (non-saturated macrocomplex), with local refinements; both purified.

No constants are given. Whether binding was seen depends on the method and setting. A result given as binding can be weak or reduced; the word gives no strength. Sequences can lack the tags named with a protein.

On to BcsQ (E. coli), for which the binding entry in assay [1] and in assay [2] was “binds” in each case.
In the case of BcsR (Bcs^HisR) (E. coli), the binding entry in assay [1] and in assay [2] was “binds” in each case.
